Laboratory results taken from PubChem BioAssay AID540303 (National Center for Advancing Translational Sciences (NCATS), 2011).
Screen size: about 330,000 compounds; about 1,000 (0.3%) were called active. The shares of active, inactive and inconclusive entries below differ from those in the screen. The call rests on the fitted dose curve; in most records, active means well fitted inhibition curve with a large enough effect; inconclusive means small, poorly fitted or top-dose-only effect; inactive means no such curve, though single readings can be large or run the other way; tested in mouse RAW 264.7 cells. Where the call is inconclusive, the potency comes from a doubtful curve fit.
Potency means the concentration at half of the fitted maximal effect.

Experiment: qHTS for Inhibitors of Cell Surface uPA Generation; further: nearly all actives have a fitted effect of over 55% in size
Conditions: cell surface uPA generation assay; series mostly up to 38.3 µM
Summary of the method: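 Murine RAW 264.7 cells are treated for 24 h with compound up to 38.3 uM final. Cell ATP, measured by ATP-Lite, remains high if blocking the uPA cascade prevents LF from reaching the cytoplasm.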
For `Oc1ccc(/C=N/Nc2cccc3cccnc23)c(O)c1`, the Potency was inconclusive: 5.01 µM [inhibitor, partial curve].
With `Cc1ccc(OCCC(=O)OCC(=O)c2ccc3c(c2)NC(=O)CO3)cc1` the Potency was “inactive”.
In the case of `CCOC(=O)/C(=C\c1ccccc1)C(=O)c1cc(C(C)=O)c(Nc2ccccc2)s1`, the Potency is reported as inconclusive: 2.82 µM [inhibitor, partial curve].
With `COc1cc(/C=C2/SC(=S)N(Cc3ccccc3)C2=O)ccc1O` the Potency was “inactive”.
For `O=C(OCC(=O)c1ccc(Cl)cc1Cl)c1ccccn1`, the Potency was inconclusive: 7.94 µM [inhibitor, single point].
With `COc1ccc2[nH]c3c(c2c1)CCN1C(=O)C(CC(=O)NCc2ccc(OC)c(OC)c2)C[C@H](C(=O)N2CCCCC2)[C@@]31CCc1ccccc1` (stereo partly specified) the Potency was inconclusive: 22.4 µM [inhibitor, single point].
For `Cc1cc(C)c2nc(NC(=O)c3ccco3)sc2c1`, the Potency was inconclusive: 7.08 µM [inhibitor, partial curve, poor fit].
In the case of `Cc1nn(-c2ccccc2)c(Oc2ccccc2)c1C=O`, the Potency is reported as inconclusive: 12.6 µM [inhibitor, single point].
With `Cc1ccc(N=Nc2ccc(O)c3ncccc23)cc1C` the Potency was inconclusive: 2.82 µM [inhibitor, partial curve, poor fit].
In the case of `C=CCn1c(SCC(=O)c2ccc(O)c(O)c2)nnc1-c1ccc(C)cc1`, the Potency is reported as inconclusive: 4.47 µM [inhibitor, partial curve].
For `Cc1ccc(C)c(N=Nc2ccc(O)c3ncccc23)c1`, the Potency was inconclusive: 5.01 µM [inhibitor, partial curve, poor fit].
In the case of `COc1ccc(-c2csc(N(CCCN(C)C)C(=O)c3cc(OC)c(OC)c(OC)c3)n2)cc1`, the Potency is reported as inconclusive: 14.1 µM [inhibitor, partial curve, poor fit].
For `O=C(CSc1nnnn1-c1ccc(F)cc1)c1ccc(O)c(O)c1`, the Potency was “inactive”.
In the case of `Cc1noc(C)c1S(=O)(=O)Nc1ccc(C(=O)N2CCN(c3ccc(F)cc3)CC2)cc1`, the Potency is reported as inconclusive: 10 µM [inhibitor, single point].
For `CC12CCC(C(=O)n3c1nc1ccccc13)C2(C)C` (stereo unspecified), the Potency was “inactive”.
In the case of `Cc1occc1-c1nc(-c2ccccn2)no1`, the Potency is reported as “inactive”.
With `O=C(Nc1ccccc1F)c1cc(-c2ccco2)nc2ccccc12` the Potency was inconclusive: 5.01 µM [inhibitor, partial curve, poor fit].
In the case of `CC(CSc1n[nH]c(=S)s1)c1ccccc1` (stereo unspecified), the Potency is reported as “inactive”.
In the case of `COc1ccc(-c2noc3c2-c2nc(-c4ccccc4C)sc2CC3)cc1`, the Potency is reported as inconclusive: 3.55 µM [inhibitor, partial curve, poor fit].
With `CC(C)C(=O)c1ccc(O)c(O)c1` the Potency was inconclusive: 5.62 µM [inhibitor, single point].
With `COc1cccc(C(=O)N(C)CC(=O)Nc2ccc(F)c(F)c2F)c1` the Potency was “inactive”.
For `CCOC(=O)C1=C(C)N(C[C@@H]2CC[C@@H](Cc3ccc4cc(OC)ccc4c3)O2)C(=O)NC1c1ccccc1` (stereo partly specified), the Potency was inconclusive: 11.2 µM [inhibitor, single point].
With `CN1CCC(NC(=O)c2cc(-c3cccc(Br)c3)nc3ccccc23)CC1` the Potency was “inactive”.
With `O=C(NCc1ccccc1)C1=C[C@@H](c2ccc(C(F)(F)F)cc2)C[C@@H](OCc2ccc(CO)cc2)O1` the Potency was inconclusive: 14.1 µM [inhibitor, partial curve, poor fit].
For `COc1cccc(NC(=O)COc2ccc(Br)c(C)c2)c1`, the Potency was inconclusive: 0.0112 µM [inhibitor, full curve, poor fit].
In the case of `O=C(Nc1nc(-c2ccncc2)cs1)C1COc2ccccc2O1` (stereo unspecified), the Potency is reported as inconclusive: 1.78 µM [inhibitor, partial curve, poor fit].
In the case of `COc1cc2ccccc2cc1C(=O)Nc1ccc(N2CCN(C)CC2)cc1`, the Potency is reported as “inactive”.
With `O=C(NCc1ccc(F)cc1)c1ccc(S(=O)(=O)N2CCCCC2)cc1` the Potency was inconclusive: 2.51 µM [inhibitor, full curve, poor fit].
With `O=C1CCC[C@@H]2Cc3nc4cc5c(cc4cc3[C@@H]3CCN1[C@H]23)OCO5` the Potency was inconclusive: 7.08 µM [inhibitor, partial curve, poor fit].
For `C=CCn1c(=O)c2c3c(sc2n2c(Nc4ccc(OC)cc4)nnc12)CCCC3`, the Potency was “inactive”.
For `COc1cc(/C=N/n2cnnc2)ccc1OC(=O)c1cccnc1`, the Potency was “inactive”.
With `COc1ccc(NC(=O)Nc2ccc(O)c3ccccc23)cc1` the Potency was inconclusive: 28.2 µM [inhibitor, single point].
With `Cc1cc2ccccc2n1CCNC(=O)c1cccs1` the Potency was “inactive”.
With `O=C(/C=C/c1ccco1)Nc1ccccn1` the Potency was “inactive”.
For `O=C(O)c1cc2c(cc1NC(=O)c1ccccc1OC(F)F)OCCCO2`, the Potency was “inactive”.
With `COc1ccc(C2CC(c3cccc(Cl)c3)=NN2c2ccc(S(N)(=O)=O)cc2)cc1` (stereo unspecified) the Potency was inconclusive: 28.2 µM [inhibitor, single point].
With `COc1cccc(NC(=S)N(CCCN2CCOCC2)C(C)c2cc3cccc(OC)c3o2)c1` (stereo unspecified) the Potency was inconclusive: 3.98 µM [inhibitor, partial curve, poor fit].
For `O=C(CN1C(=O)C2CC=CCC2C1=O)Nc1ccccc1N1CCCC1` (stereo unspecified), the Potency was inconclusive: 2.24 µM [inhibitor, partial curve].
For `O=C(Cn1[nH]c(=O)c2ccccc2c1=O)Nc1cccc(S(=O)(=O)N2CCCCCC2)c1`, the Potency was “inactive”.
In the case of `CN(CC(=O)Nc1cccc(F)c1)C(=O)CN1C(=O)NC2(CCCCC2)C1=O`, the Potency is reported as “inactive”.
With `CC(C)NCC(O)c1cc(O)cc(O)c1` (stereo unspecified) the Potency was inconclusive: 7.08 µM [inhibitor, single point].
In the case of `COc1ccc(C(=O)NC(=O)COC(=O)C2COc3ccccc3O2)cc1` (stereo unspecified), the Potency is reported as “inactive”.
In the case of `O=C(CSc1nc(-c2ccccc2)cc(C(F)(F)F)n1)NCc1cccs1`, the Potency is reported as “inactive”.
In the case of `CCCn1nnc(NC(=S)NC(=O)Cc2ccccc2)n1`, the Potency is reported as “inactive”.
In the case of `COc1ccc(OC)c(C2=NOC(C(=O)NCc3cccnc3)C2)c1` (stereo unspecified), the Potency is reported as “inactive”.
In the case of `CCS(=O)(=O)N1N=C(c2cccc(NS(C)(=O)=O)c2)CC1c1ccc(C)cc1` (stereo unspecified), the Potency is reported as “inactive”.
With `COc1ccc(OC)c(C2CC(=O)N3CN(c4ccccc4)CSC3=C2C#N)c1` (stereo unspecified) the Potency was “inactive”.
In the case of `COc1ccc(-c2nnc(Nc3nc4c(OC)cccc4s3)o2)c(OC)c1`, the Potency is reported as inconclusive: 5.62 µM [inhibitor, partial curve].
In the case of `Cc1cc(O)c(C(C)C)cc1N=Cc1ccc([N+](=O)[O-])cc1`, the Potency is reported as inconclusive: 12.6 µM [inhibitor, partial curve, poor fit].
With `CCc1ccc(C(C(=O)NC(C)(C)CC)N(Cc2ccco2)C(=O)Cn2nnc3ccccc32)cc1` (stereo unspecified) the Potency was “inactive”.
In the case of `COCCCNS(=O)(=O)c1cccc(S(=O)(=O)c2cccc(S(=O)(=O)NCCCOC)c2)c1`, the Potency is reported as inconclusive: 14.1 µM [inhibitor, partial curve, poor fit].
In the case of `O=C(Cn1cnc2ccccc2c1=O)c1ccc(OC(F)F)cc1`, the Potency is reported as “inactive”.
With `CC(=O)c1ccc(NC2OC(C)C(O)C(O)C2O)cc1` (stereo unspecified) the Potency was “inactive”.
For `Cc1cc(C)c2nc(NNC(=O)c3ccc(S(=O)(=O)N4CCc5ccccc5C4)cc3)sc2c1`, the Potency was inconclusive: 7.08 µM [inhibitor, partial curve, poor fit].
With `Cc1[nH]n(-c2ccccc2)c(=O)c1/C=N/N(C)c1ccccc1` the Potency was “inactive”.
For `O=S(=O)(c1ccc(F)cc1)N1CCn2c(nc3ccccc32)C1`, the Potency was “inactive”.
For `COc1cccc(NC(=O)c2cn(C)c(=O)c3cc(OC)c(OC)cc23)c1`, the Potency was “inactive”.
For `O=C1/C(=C/c2ccc3c(c2)OCO3)Oc2cc(OCC(=O)N3CC(O)C[C@H]3C(=O)O)ccc21` (stereo partly specified), the Potency was inconclusive: 12.6 µM [inhibitor, partial curve].
For `Cc1cc(C(=O)COc2ccc(F)cc2Br)c(C)n1C1CC1`, the Potency was inconclusive: 12.6 µM [inhibitor, single point].
In the case of `Cc1ccc(CSc2nc3[nH]ncc3c(=O)[nH]2)cc1`, the Potency is reported as inconclusive: 4.47 µM [inhibitor, partial curve, poor fit].
In the case of `CC(C)(C)N1C(=O)[C@H]2[C@@H](c3ccc(Br)cc3)N3C(=O)N(c4ccc(Br)cc4)C(=O)[C@@]3(Cc3ccccc3)[C@H]2C1=O`, the Potency is reported as “inactive”.
For `C/C(=N\NC(=O)c1ccc(Br)cc1)c1ccccc1`, the Potency was “inactive”.
In the case of `COc1ccc2c(c1)CCCN2S(=O)(=O)c1ccc(Cl)cc1`, the Potency is reported as inconclusive: 7.94 µM [inhibitor, single point].
In the case of `Cc1cc2ccccn2c1C(=O)c1ccccc1Br`, the Potency is reported as “inactive”.
With `CCOc1ccc(/C=N/Nc2cc(C)nc(N3CCOCC3)n2)cc1` the Potency was “inactive”.
For `O=C1C=CC(=Nc2ccc3c(c2)Cc2cc(F)ccc2-3)O1`, the Potency was inconclusive: 5.62 µM [inhibitor, partial curve, poor fit].
In the case of `Cc1ccc(C)c(SCC(=O)OCC(=O)NCCNC(=O)COC(=O)CSc2cc(C)ccc2C)c1`, the Potency is reported as “inactive”.
For `COc1ccc(CCn2c(=N)c(C(=O)NCC3CCCO3)cc3c(=O)n4ccccc4nc32)cc1OC` (stereo unspecified), the Potency was inconclusive: 15.8 µM [inhibitor, single point].
In the case of `COCC(=O)O[C@]1(CCN(C)CCCc2nc3ccccc3[nH]2)CCc2cc(F)ccc2[C@@H]1C(C)C`, the Potency is reported as inconclusive: 10 µM [inhibitor, single point].
In the case of `COc1nccnc1NS(=O)(=O)c1ccc(N=Cc2c(C)[nH]n(-c3ccc(C)c(C)c3)c2=O)cc1`, the Potency is reported as inconclusive: 3.55 µM [inhibitor, partial curve, poor fit].
For `Cc1ccc(S(=O)(=O)N2C[C@@H]3[C@H]4CC[C@H](C4)[C@@H]3[C@@H](C)[C@@H]2c2cn(Cc3ccccc3)c3ncccc23)cc1`, the Potency was inconclusive: 28.2 µM [inhibitor, single point].
